Isolated mass and isolated yield data for 17 substances are collected here from patent US11285219B2 (UREKA SARL, priority 2019, dated 2022).

For some of these results: Some peptides are written in HELM: one residue between dots, names in brackets for other building blocks, links after the first $. Numbered stars: 1 amine (or outer) side, 2 acyl side, 3 side chain; on linkers, the order of the positions; unused ones are H or OH. Bridge positions count the residues as written; N and C are the ends. I, II: the chains in the order shown. X6 = CC(CNC(=O)NC(C)CNC(=O)[*:1])NC(=O)NCC(C)N[*:2]

Details in all cases: whole synthesis, scale 0.1 mmol
The nature of data set [1]: general procedure: Fmoc solid-phase peptide synthesis; sieber resin; PyBOP/DIEA.
The nature of data set [2]: general procedure: Fmoc solid-phase peptide synthesis; Sieber resin; PyBOP/DIEA.
The nature of data set [3]: general procedure: Fmoc solid-phase peptide synthesis; rink resin; PyBOP/DIEA.
Data set [4] is described as follows: general procedure: Fmoc solid-phase peptide synthesis; wang resin; PyBOP/DIEA.

With “H-HGEGTFTSDA^uA^uA^uLEGQAAKEFIAWLVKGRG-NH2”, in data set [1], the isolated mass was found to be 28.4 mg and the isolated yield was found to be 8.9%.

On to “H-HGEGTFTSDVA^uA^uA^uEGQAAKEFIAWLVKGRG-NH2”, for which, in data set [1], the isolated mass turned out to be 7.0 mg and the isolated yield came to 2.2%.

In data set [2], “H-HGEGTFTSDVA^uY^uA^uEGQAAKEFIAWLVKGRG-NH2” yielded an isolated mass of 2.4 mg and an isolated yield of 0.8%.

As to “H-HGEGTFTSDVSA^uA^uA^uGQAAKEFIAWLVKGRG-NH2”, in data set [1], the isolated mass is recorded as 9.3 mg and the isolated yield is listed as 2.95%.

In data set [1], “H-HGEGTFTSDVSSA^uA^uA^uQAAKEFIAWLVKGRG-NH2” gave an isolated mass of 11.88 mg and an isolated yield of 3.7%.

As for “H-HGEGTFTSDVSSYLA^uA^uA^uAKEFIAWLVKGRG-NH2”, in data set [1], the isolated mass is 13.02 mg and the isolated yield came out at 4.0%.

In data set [1], “H-HGEGTFTSDVSSYLEA^uA^uA^uKEFIAWLVKGRG-NH2” returned an isolated mass of 10.2 mg and an isolated yield of 3.1%.

In data set [1], “H-HGEGTFTSDVSSYLEGA^uA^uA^uEFIAWLVKGRG-NH2” yielded an isolated mass of 10.98 mg and an isolated yield of 3.4%.

Turning to H-HGEGTFTSDVSSYLEGQAAKEFIAWLVKGRG-NH2, in data set [1], the isolated mass was found to be 6.1 mg and the isolated yield worked out at 1.8%.

On to “H-HGEGTFTSDVSSYLEGQAA^uA^uA^uIAWLVKGRG-NH2”, for which, in data set [1], the isolated mass stood at 8.4 mg and the isolated yield turned out to be 2.6%.

As to “H-HGEGTFTSDVSSYLEGQA^uA^uA^uFIAWLVKGRG-NH2”, in data set [1], the isolated mass is given as 6.0 mg and the isolated yield is on record as 1.85%.

In data set [1], “H-HGEGTFTSDVSSYLE^uA^uA^uAKEFIAWLVKGRG-NH2” returned an isolated mass of 17.6 mg and an isolated yield of 5.3%.

In data set [1], “H-HGEGTFTSDVSSYY^uE^uA^uAAKEFIAWLVKGRG-NH2” showed an isolated mass of 2.3 mg and an isolated yield of 0.7%.

Consider “H-HGEGTFTSD^uαA^uA^uYLEGQAAKEFIAWLVKGRG-NH2”, for which, in data set [1], the isolated mass is given as 10.13 mg and the isolated yield was 3.1%.

In the case of “I: AAKEFIAWLVKGRG-NH2 / II: H-HGEGTFTSDVSSY (linker I:N-II:C via X6; SMILES CC[C@H](C)[C@H](NC(=O)[C@H](Cc1ccccc1)NC(=O)[C@H](CCC(=O)O)NC(=O)[C@H](CCCCN)NC(=O)[C@H](C)NC(=O)[C@H](C)NC(=O)NCC(C)NC(=O)NCC(C)NC(=O)NCC(C)NC(=O)[C@H](Cc1ccc(O)cc1)NC(=O)[C@H](CO)NC(=O)[C@H](CO)NC(=O)[C@@H](NC(=O)[C@H](CC(=O)O)NC(=O)[C@H](CO)NC(=O)[C@@H](NC(=O)[C@H](Cc1ccccc1)NC(=O)[C@@H](NC(=O)CNC(=O)[C@H](CCC(=O)O)NC(=O)CNC(=O)[C@@H](N)Cc1c[nH]cn1)[C@@H](C)O)[C@@H](C)O)C(C)C)C(=O)N[C@@H](C)C(=O)N[C@@H](Cc1c[nH]c2ccccc12)C(=O)N[C@@H](CC(C)C)C(=O)N[C@H](C(=O)N[C@@H](CCCCN)C(=O)NCC(=O)N[C@@H](CCCNC(=N)N)C(=O)NCC(N)=O)C(C)C)”, in data set [1], the isolated mass is 3.22 mg and the isolated yield turned out to be 1.0%.

With “PEPTIDE1{H.[Aib].E.G.T.F.T.S.D.V.S.S.Y.L.E.G.Q.A.A.K.E.F.I.A.W.L.V.[Au].[Au].[Au].[am]}|PEPTIDE2{[C18diacid].[gGlu].[OEG].[OEG]}$PEPTIDE1,PEPTIDE2,20:R3-4:R2$$$V2.0”, in data set [3], the isolated mass is given as 1.45 mg and the isolated yield is recorded as 0.4%.

In the case of semaglutide, in data set [4], the isolated mass is 2.2 mg and the isolated yield is given as 0.5%.
